# Experimental data reported in PubChem BioAssay (EPA / NIEHS).
# Chains of the proteins cited; added tags and fusions are not shown. Lines headed by an entry give the natural chain unless they say otherwise; changes in a name come on top.
# UniProt P10275: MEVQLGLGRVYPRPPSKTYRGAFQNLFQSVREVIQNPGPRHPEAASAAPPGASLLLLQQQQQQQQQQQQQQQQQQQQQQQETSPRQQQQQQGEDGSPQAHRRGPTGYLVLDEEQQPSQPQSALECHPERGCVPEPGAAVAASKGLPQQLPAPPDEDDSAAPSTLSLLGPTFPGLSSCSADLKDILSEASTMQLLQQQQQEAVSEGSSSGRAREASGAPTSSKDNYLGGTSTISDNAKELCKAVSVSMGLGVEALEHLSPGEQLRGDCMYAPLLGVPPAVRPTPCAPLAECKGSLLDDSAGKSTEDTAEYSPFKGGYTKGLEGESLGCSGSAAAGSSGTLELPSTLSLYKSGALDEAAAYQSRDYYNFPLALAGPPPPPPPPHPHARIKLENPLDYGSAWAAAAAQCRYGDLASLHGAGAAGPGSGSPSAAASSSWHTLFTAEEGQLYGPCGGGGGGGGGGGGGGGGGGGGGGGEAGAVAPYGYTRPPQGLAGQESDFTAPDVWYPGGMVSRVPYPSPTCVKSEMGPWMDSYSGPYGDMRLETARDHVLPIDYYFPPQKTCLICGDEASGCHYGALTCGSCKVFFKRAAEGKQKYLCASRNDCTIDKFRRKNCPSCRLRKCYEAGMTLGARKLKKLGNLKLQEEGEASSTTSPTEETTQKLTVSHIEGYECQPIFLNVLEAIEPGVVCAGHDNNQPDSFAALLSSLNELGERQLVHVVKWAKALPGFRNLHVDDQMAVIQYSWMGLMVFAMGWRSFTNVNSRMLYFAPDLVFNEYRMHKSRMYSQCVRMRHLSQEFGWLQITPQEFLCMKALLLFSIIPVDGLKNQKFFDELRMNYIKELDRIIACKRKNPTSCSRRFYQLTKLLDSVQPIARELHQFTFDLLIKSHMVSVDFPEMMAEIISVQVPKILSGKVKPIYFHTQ
# UniProt Q9UNQ0: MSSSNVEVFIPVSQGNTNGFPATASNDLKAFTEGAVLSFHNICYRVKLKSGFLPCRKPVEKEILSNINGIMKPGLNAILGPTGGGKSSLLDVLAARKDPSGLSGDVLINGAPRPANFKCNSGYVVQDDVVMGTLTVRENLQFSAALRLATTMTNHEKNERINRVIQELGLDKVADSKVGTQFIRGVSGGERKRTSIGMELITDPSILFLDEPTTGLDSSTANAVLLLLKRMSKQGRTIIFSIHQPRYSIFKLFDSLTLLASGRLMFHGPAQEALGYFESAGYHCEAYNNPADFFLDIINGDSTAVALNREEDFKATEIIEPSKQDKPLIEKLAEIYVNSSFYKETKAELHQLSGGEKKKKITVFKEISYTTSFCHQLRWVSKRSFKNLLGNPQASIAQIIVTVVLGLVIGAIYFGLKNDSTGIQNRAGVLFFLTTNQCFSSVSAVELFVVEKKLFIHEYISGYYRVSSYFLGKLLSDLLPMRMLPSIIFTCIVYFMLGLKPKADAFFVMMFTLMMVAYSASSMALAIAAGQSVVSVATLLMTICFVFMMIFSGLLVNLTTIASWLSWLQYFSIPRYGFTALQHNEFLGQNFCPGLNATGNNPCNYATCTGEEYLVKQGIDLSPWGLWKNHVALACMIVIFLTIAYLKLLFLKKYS
# UniProt Q96RI1: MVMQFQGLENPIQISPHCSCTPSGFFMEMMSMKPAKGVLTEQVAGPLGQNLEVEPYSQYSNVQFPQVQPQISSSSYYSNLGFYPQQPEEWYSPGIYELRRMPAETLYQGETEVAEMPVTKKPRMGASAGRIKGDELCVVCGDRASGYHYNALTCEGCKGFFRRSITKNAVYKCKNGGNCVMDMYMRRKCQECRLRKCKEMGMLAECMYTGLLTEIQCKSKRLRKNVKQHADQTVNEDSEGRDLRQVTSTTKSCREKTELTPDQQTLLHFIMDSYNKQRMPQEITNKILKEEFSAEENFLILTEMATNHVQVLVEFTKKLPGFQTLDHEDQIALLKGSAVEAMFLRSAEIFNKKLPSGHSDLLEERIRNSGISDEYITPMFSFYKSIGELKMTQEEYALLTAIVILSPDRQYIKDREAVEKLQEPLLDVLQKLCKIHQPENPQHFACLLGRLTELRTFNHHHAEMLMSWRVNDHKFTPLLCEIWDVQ
# Values joined by “and” are separate entries in the source; they are usually repeats but may differ in a detail not shown here. Equal entries are not always repeated. This list was built around the results that the source calls inconclusive (neither active nor inactive); the mix of calls is not that of the screen. For some assays here: Potencies beside an inconclusive call are fits to weak or partial responses and may not hold up. Active and inactive are the calls of the source. The calls were made as follows: active = hit-call score of the fitted dose curve at least 0.9, where 1 is the maximum; inconclusive = response in the unintended direction; inactive = score below 0.9.
# Experiments:
# [1] = target: Androgen receptor (Homo sapiens) (UniProt P10275); assay: ATG_AR_TRANS: Attagene TRANS-FACTORIAL HepG2 Assay for human Androgen Receptor (AR) (AID 2282973); settings: HepG2 Attagene TRANS-FACTORIAL AR reporter transcription
# In short: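 Chimeric nuclear receptor–Gal4 activity was assessed in human HepG2 hepatocytes after 24 h chemical dosing. Induced reporter mRNA was detected via labelled RT-PCR fragments on capillary electrophoresis, and gain of signal was analysed against DMSO.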
# [2] = read-out: Broad substrate specificity ATP-binding cassette transporter ABCG2 (Homo sapiens) (UniProt Q9UNQ0); assay: CLD_ABCG2_6hr: CellzDirect (CLD) Gene Expression Assay for ABC Transporter (ABCG2) at 6 hours (AID 2283660)
# In short: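 ABCG2 mRNA induction measured by qNPA chemiluminescence in human primary hepatocyte cultures, 6 h post-dose. Chemicals tested at several concentrations against a 0.2% DMSO vehicle; positive-direction fit relative to DMSO.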
# [3] = read-out: xenobiotic metabolism (CYP2C9), CYP2C9 (gene 1559); assay: CLD_CYP2C9_6hr: CellzDirect (CLD) Gene Expression Assay for xenobiotic metabolism (CYP2C9) at 6 hours (AID 2283664)
# In short: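 Readout is qNPA chemiluminescence of CYP2C9 mRNA, taken 6 h after dosing of cultured human liver primary cells at several concentrations. Activity is the increase over 0.2% DMSO baseline. Morphology-based cytotoxicity flagged yes/no.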
# [4] = CLD_ACTIN_48hr: CellzDirect (CLD) Gene Expression Assay for Baseline Control (Actin) at 48 hours (AID 2283702)
# In short: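 Background-control actin mRNA read by qNPA chemiluminescence at 48 h. Human hepatocyte cultures from two donors received fresh multi-concentration chemical doses daily for two days; 0.2% DMSO served as vehicle baseline.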
# [5] = read-out: sulfotransferase (SULT2A), SULT2A1 (gene 6822); assay: CLD_SULT2A_48hr: CellzDirect (CLD) Gene Expression Assay for sulfotransferase (SULT2A) at 48 hours (AID 2283710);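 also: hits raise SULT2A1 transcript above the 0.2% DMSO vehicle baseline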
# In short: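 SULT2A1 transcript measured by qNPA chemiluminescence in human primary hepatocyte cultures after 48 h, with fresh dosing solutions on two consecutive days; gain-of-signal fitting against 0.2% DMSO vehicle; cytotoxicity annotated from phase-contrast morphology.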
# AR (gene 367) = AR (gene 367) (UniProt P10275); assay: ACEA_AR_agonist_80hr: ACEA Biosciences xCELLigence Real-Time Cell Analysis on Androgen Receptor Agonism for Proliferation (AID 2283783);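 also: hits increase impedance growth signal above DMSO baseline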
# In short: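 Eight concentrations, 1:4 serial dilution from a 100 uM final top, in biological duplicate. Impedance-based real-time growth of 22Rv1 cells after overnight baseline, recorded hourly and read at 80 hours. Controls: testosterone, MG132, assay media.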
# [6] = target: Bile acid receptor (Homo sapiens) (UniProt Q96RI1); assay: OT_FXR_FXRSRC1_1440: Odyssey Thera (OT) 24-hour HEK293T Protein-Complementation Assay for Farnesoid X receptor/SRC-1 Co-activator (AID 2283384)
# In short: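 Protein-fragment complementation: FXR and SRC-1 fused to reporter fragments that reassemble on interaction, read by fluorescence intensity. Human HEK293T cells measured 24 h post-dose; positive-direction fit versus DMSO.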
# [7] = Tanguay_ZF_120hpf_AXIS_legacy: (Legacy) Oregon State University Tanguay Lab 120 Hour Post-fertilization zebrafish Assay for Body Axis Malformation (AID 2283635);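 also: potency for an increased fraction of larvae scored with body axis malformation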
# In short: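 Each dechorionated embryo was exposed alone from 6 hpf, with DMSO at 0.64% (vol/vol) and trimethyltin chloride 5 uM as positive control. Axis malformation was recorded at 120 hpf unless the embryo had died.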
# [8] = Tanguay_ZF_120hpf_SOMI_legacy: (Legacy) Oregon State University Tanguay Lab 120 Hour Post-fertilization zebrafish Assay for Somite Malformation (AID 2283647)
# In short: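 Somitogenesis defects are recorded as binary calls in whole larvae at 120 hpf after continuous static chemical exposure starting at 6 hpf in dechorionated 5D embryos. DMSO serves as negative control and baseline.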
# [9] = Tanguay_ZF_120hpf_TRUN_legacy: (Legacy) Oregon State University Tanguay Lab 120 Hour Post-fertilization zebrafish Assay for Truncated Body (AID 2283655)
# In short: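 Single dechorionated zebrafish embryos received test chemical from 6 hpf in 0.64% DMSO, kept at 28C. At 120 hpf, brightfield inspection noted any truncated body.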
# [10] = Tanguay_ZF_120hpf_NC_legacy: (Legacy) Oregon State University Tanguay Lab 120 Hour Post-fertilization zebrafish Assay for Notochord and Tail Malformation (AID 2283656)
# In short: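 Binary scoring of notochord distortion by brightfield microscopy; embryos dying were not scored. Wild-type Tropical 5D embryos, chorion removed, exposed singly and statically from 6 to 120 hpf, 28C, sealed, 0.64% DMSO.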
# [11] = read-out: ABC Transporter (ABCB1), ABCB1 (gene 5243); assay: CLD_ABCB1_24hr: CellzDirect (CLD) Gene Expression Assay for ABC Transporter (ABCB1) at 24 hours (AID 2283684);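 also: potency for increase in ABCB1 mRNA relative to DMSO vehicle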
# In short: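 ABCB1 mRNA induction versus 0.2% DMSO vehicle was read by qNPA chemiluminescence at 24 h. Cultured human hepatocytes from two donor preparations received daily fresh dosing, and phase-contrast cytotoxicity calls were annotated alongside the data.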
# [12] = read-out: ABC Transporter (ABCB1), ABCB1 (gene 5243); assay: CLD_ABCB1_48hr: CellzDirect (CLD) Gene Expression Assay for ABC Transporter (ABCB1) at 48 hours (AID 2283695);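 also: potency for induction meaning increase of mRNA over DMSO vehicle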
# In short: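 ABCB1 mRNA was measured by quantitative nuclease protection assay (chemiluminescence) 48 h after dosing. Human hepatocyte cultures from two separate donors received fresh dosing solutions daily for two days, with 0.2% DMSO as vehicle. Positive-direction fit against DMSO.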
# [13] = tested on: turtle Androgen Receptor (AR), gene 101947425; assay: ATG_trAR_XSP2: Attagene TRANS-FACTORIAL Multi-Species (XSP2) HepG2 Assay for turtle Androgen Receptor (AR) (AID 2283815);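 as to AC50: reporter mRNA from a Gal4 chimera of turtle AR measured by RT-PCR; potency for gain of reporter signal meaning activation above DMSO baseline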
# In short: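 Reporter transcripts were quantified via RT-PCR and capillary electrophoresis and fitted upward against DMSO. Transiently transfected human HepG2 cells carrying NR-Gal4 chimeras were exposed 24 h, with 3 nM 6-alpha-fluorotestosterone plus 1.5 nM norgestrel added.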
# [14] = target: Bile acid receptor (Homo sapiens) (UniProt Q96RI1); assay: OT_FXR_FXRSRC1_0480: Odyssey Thera (OT) 8-hour HEK293T Protein-Complementation Assay for Farnesoid X receptor/SRC-1 Co-activator (AID 2283383)
# In short: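 Binding of FXR to coactivator SRC-1 was read as fluorescence from a reconstituted split reporter in HEK293T cells, 8 h after chemical addition. Only increases in signal versus DMSO were fit.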
# [15] = Tanguay_ZF_120hpf_CIRC_legacy: (Legacy) Oregon State University Tanguay Lab 120 Hour Post-fertilization zebrafish Assay for Circulatory Malformation (AID 2283651)
# In short: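 Binary circulatory malformation call at 120 hpf by brightfield imaging of zebrafish larvae; chorion removed at 4 hpf, static exposure from 6 hpf in sealed dark plates at 28C, final DMSO 0.64%; non-mortality endpoints skipped if embryo died.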
# [16] = ACEA_AR_agonist_AUC_viability: ACEA Biosciences xCELLigence Real-Time Cell Analysis on Androgen Receptor Agonism for Viability (AID 2283775);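 also: viability read 80 hours after compound addition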
# In short: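 22Rv1 cells; impedance growth kinetics; 8-pt 1:4 dilutions from 100 uM top final, ≤0.5% DMSO; n = 2; 80 h read; AUC viability, loss-of-signal vs DMSO.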
# [17] = target: Nucleoli Translocation, AR (gene 367) (UniProt P10275); assay: UPITT_HCI_U2OS_AR_TIF2_Nucleoli_Agonist: University of Pittsburgh U2OS Androgen Receptor-Transcriptional Intermediary Factor 2 (AR-TIF2) Agonism High Content Imaging Assay for Nucleoli Translocation (AID 2283998)
# In short: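 High-content images quantify nucleolar accumulation of RFP-fused AR in cells also expressing GFP-TIF2; the endpoint is fitted as signal gain versus DMSO controls across final concentrations of 0.195 to 50 uM.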
# [18] = read-out: ABC Transporter (ABCB1), ABCB1 (gene 5243); assay: CLD_ABCB1_6hr: CellzDirect (CLD) Gene Expression Assay for ABC Transporter (ABCB1) at 6 hours (AID 2283659)
# In short: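 ABCB1 transcript measured by quantitative nuclease protection assay, chemiluminescent read-out, 6 h after dosing human hepatocyte cultures (0.2% DMSO vehicle, daily redosing). Activity fitted as increase over DMSO baseline; cytotoxicity flagged by phase-contrast morphology.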
# [19] = read-out: xenobiotic metabolism (CYP1A1), CYP1A1 (gene 1543); assay: CLD_CYP1A1_48hr: CellzDirect (CLD) Gene Expression Assay for xenobiotic metabolism (CYP1A1) at 48 hours (AID 2283705)
# In short: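 CYP1A1 transcript measured by quantitative nuclease protection (chemiluminescent) 48 h after two daily treatments of human hepatocyte cultures, versus 0.2% DMSO. Morphology-based cytotoxicity flags accompany data; two donor preparations used.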
smiles,measurement,setting,value
Cc1ccccc1CO[C@@H]1C[C@@]2(C(C)C)CC[C@]1(C)O2,AC50,[1],inconclusive: 50 µM
same,outcome,[2],inactive
same,AC50,[3],inconclusive: 0.264 µM
same,AC50,[4],inconclusive: 20 µM
same,outcome,[5],inactive
same,outcome,AR (gene 367),inactive
O=C(Cl)c1ccc(Cl)cc1,AC50,[1],inconclusive: 100 µM
C[Si](Cn1cncn1)(c1ccc(F)cc1)c1ccc(F)cc1,outcome,[6],inactive
same,AC50,[7],active: 10.3 µM
same,AC50,[8],active: 47.7 µM
same,AC50,[9],active: 11 µM
same,AC50,[10],inconclusive: 7.16 µM
same,AC50,[3],inconclusive: 20 µM
same,AC50,[11],active: 4.51 µM
same,AC50,[12],active: 4.36 µM
CCCCOC(=O)c1ccccc1C(=O)OCc1ccccc1,outcome,[13],inactive
CCN(CC)N=O,outcome,[14],inactive
same,AC50,[15],inconclusive: 10.5 µM
same,AC50,[16],inconclusive: 0.0596 µM
Cc1cnc(C2=NC(C)(C(C)C)C(=O)N2)c(C(=O)O)c1 (stereo not given),AC50,[1],inconclusive: 50 µM
same,AC50,[3],inconclusive: 20 µM
same,AC50,[12],inconclusive: 20 µM
same,outcome,[4],inactive
same,outcome,AR (gene 367),inactive
CC(C)=CC1C(C(=O)OCN2C(=O)C3=C(CCCC3)C2=O)C1(C)C (stereo not given),AC50,[10],inconclusive: 42.4 µM
same,AC50,[11],inconclusive: 3.97 µM
same,AC50,[12],inconclusive: 20 µM
same,outcome,[4],inactive
same,outcome,[5],inactive
same,outcome,[17],inactive
CCCOc1nn(C(=O)NS(=O)(=O)c2ccccc2C(=O)OC)c(=O)n1C,AC50,[1],inconclusive: 50 µM
same,AC50,[7],inconclusive: 1.13 µM
same,AC50,[8],inconclusive: 202 µM
same,AC50,[15],inconclusive: 53.3 µM
same,AC50,[9],inconclusive: 28.7 µM
same,AC50,[18],inconclusive: 20 µM
same,AC50,[3],inconclusive: 0.00347 µM
same,AC50,[11],inconclusive: 20 µM
same,outcome,[4],inactive
same,AC50,[19],inconclusive: 0.0834 µM
same,AC50,[5],inconclusive: 0.0552 µM
CCOP(=O)(NC(C)C)Oc1ccc(SC)c(C)c1 (stereo not given),outcome,[1],inactive
same,AC50,[14],active: 50 µM
same,AC50,[7],active: 22.1 µM
same,AC50,[18],inconclusive: 1.17 µM
same,AC50,[2],inconclusive: 20 µM
same,AC50,[3],inconclusive: 20 µM
same,AC50,[11],inconclusive: 20 µM
same,AC50,AR (gene 367),inconclusive: 0.00061 µM
same,AC50,[13],inconclusive: 100 µM and inconclusive: 178 µM

# Another view of some results above.
smiles	measurement	setting	value
CCCOc1nn(C(=O)NS(=O)(=O)c2ccccc2C(=O)OC)c(=O)n1C	AC50	[11]	inconclusive: 20 µM
same	outcome	[4]	inactive
